Results are given in words; binding and its absence hold for the method and conditions named. In cells and extracts the contact can be indirect. These calls come from enrichment with a bait or labelling near it, and not all partners need be listed.
Target: Flag-YY1 (Yin Yang 1), expressed in HCT116 cells (human) (UniProt P25490)
Assay: affinity purification with mass spectrometry; whole-cell extracts from HCT116 cells expressing Flag-YY1; isolated YY1 protein separated by SDS-PAGE, bands cut out, in-gel tryptic digestion, LC-MS/MS

The chains behind the UniProt entries cited, without tags or fusion partners.
UniProt P25490: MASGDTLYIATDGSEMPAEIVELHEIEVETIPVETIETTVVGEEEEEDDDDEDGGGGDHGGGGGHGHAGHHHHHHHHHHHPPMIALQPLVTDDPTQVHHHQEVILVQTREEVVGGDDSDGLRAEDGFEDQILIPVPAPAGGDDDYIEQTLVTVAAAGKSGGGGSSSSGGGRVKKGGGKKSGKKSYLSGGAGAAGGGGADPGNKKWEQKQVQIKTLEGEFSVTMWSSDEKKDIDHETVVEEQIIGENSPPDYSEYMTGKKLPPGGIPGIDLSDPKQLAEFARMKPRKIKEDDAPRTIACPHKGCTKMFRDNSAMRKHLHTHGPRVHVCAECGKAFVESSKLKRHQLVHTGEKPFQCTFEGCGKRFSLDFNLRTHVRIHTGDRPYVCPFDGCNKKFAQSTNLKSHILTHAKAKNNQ
UniProt Q93009: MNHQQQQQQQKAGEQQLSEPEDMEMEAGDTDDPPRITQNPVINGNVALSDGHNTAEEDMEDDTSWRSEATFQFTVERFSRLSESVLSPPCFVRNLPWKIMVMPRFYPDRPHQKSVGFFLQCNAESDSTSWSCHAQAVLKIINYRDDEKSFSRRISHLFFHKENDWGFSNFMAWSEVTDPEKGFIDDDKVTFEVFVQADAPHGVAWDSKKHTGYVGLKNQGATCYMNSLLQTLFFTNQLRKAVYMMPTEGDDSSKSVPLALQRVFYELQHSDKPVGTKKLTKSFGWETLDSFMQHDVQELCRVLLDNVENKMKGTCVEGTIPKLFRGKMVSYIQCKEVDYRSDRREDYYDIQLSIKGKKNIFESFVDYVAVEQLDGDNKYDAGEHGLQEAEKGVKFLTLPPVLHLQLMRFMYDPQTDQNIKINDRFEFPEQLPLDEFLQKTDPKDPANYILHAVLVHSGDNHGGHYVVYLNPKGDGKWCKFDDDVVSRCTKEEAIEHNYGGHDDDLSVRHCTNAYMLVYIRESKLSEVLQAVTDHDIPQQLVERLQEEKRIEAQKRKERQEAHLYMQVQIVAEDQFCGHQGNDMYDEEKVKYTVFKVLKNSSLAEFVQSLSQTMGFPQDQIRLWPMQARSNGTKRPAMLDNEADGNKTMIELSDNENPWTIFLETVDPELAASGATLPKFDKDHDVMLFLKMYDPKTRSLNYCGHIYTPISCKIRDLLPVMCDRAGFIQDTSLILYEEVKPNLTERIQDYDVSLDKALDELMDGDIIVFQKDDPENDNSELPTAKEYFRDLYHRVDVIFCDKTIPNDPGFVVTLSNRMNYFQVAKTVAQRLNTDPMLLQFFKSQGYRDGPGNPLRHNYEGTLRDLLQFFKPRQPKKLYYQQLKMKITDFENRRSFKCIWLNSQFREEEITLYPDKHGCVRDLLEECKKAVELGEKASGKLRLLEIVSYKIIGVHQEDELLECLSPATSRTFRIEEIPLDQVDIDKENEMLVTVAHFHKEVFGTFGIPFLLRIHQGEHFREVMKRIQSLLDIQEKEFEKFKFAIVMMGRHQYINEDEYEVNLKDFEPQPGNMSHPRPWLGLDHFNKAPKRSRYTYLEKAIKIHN

binding: binds
Substance: Ubiquitin-specific protease 7 (USP7), endogenous in CRC cells (from UniProt Q93009 1-1102) (enzyme)

Source: article PMC11106261
